Results are given in words; binding and its absence hold for the method and conditions named. Binding seen in cells or lysates may run through a third protein. Some results given as binding are weak or reduced against the parent protein; the word gives no strength.
Columns and labels:
Test in all cases: split reporter; Gaussia princeps luciferase complementation assay in human HEK293T cells; Gluc2 at the N terminus of SKAP1 or SKAP2 (N2), Gluc1 at the N terminus (N1) or C terminus (C1) of the SRC kinase; 100 ng plasmid pair, PEI; luminescence read in lysate one day later; normalized luminescence ratio (NLR), given relative to wild type or to SKAP2
[1] = target: FRK, N1-fused (UniProt P42685)
[2] = target: FYN (isoform without exon 7), N1-fused (UniProt P06241)
[3] = target: FYNB isoform of FYN, C1-fused (UniProt P06241)
[4] = target: FYNT isoform of FYN, N1-fused (UniProt P06241)
[5] = target: HCK wild type, C1-fused (UniProt P08631)
[6] = target: LCK R154A mutant, C1-fused (UniProt P06239)
[7] = target: LCK R154A mutant, N1-fused (UniProt P06239)
[8] = target: LCK Y505F mutant, C1-fused (UniProt P06239)
[9] = target: LCK Y505F mutant, N1-fused (UniProt P06239)
[10] = target: LYN, C1-fused (UniProt P07948)
[11] = target: LYN, N1-fused (UniProt P07948)
[12] = target: SRMS, C1-fused (UniProt Q9H3Y6)
[13] = target: SRMS, N1-fused (UniProt Q9H3Y6)
[14] = target: YES, C1-fused (UniProt P07947)

Amino acid sequences for entries named in this document (tags omitted). A change or cut given only in a name is not applied to a line headed by its entry. Chains listed by the source or under a name are the forms on record and can include a tag or linker. Residues count along the entry.
UniProt P42685: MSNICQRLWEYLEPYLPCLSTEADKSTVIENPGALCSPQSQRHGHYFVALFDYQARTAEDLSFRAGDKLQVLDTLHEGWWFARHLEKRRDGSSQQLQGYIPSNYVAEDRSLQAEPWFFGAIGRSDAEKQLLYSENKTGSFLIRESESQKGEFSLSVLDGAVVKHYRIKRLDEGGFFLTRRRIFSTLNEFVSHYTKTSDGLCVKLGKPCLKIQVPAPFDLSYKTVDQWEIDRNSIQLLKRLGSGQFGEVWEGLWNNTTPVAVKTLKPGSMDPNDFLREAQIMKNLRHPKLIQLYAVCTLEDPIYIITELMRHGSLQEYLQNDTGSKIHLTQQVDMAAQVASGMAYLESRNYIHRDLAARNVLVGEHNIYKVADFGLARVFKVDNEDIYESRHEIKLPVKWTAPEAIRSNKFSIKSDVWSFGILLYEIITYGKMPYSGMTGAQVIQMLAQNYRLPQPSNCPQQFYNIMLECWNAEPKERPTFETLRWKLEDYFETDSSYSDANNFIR
UniProt P06241: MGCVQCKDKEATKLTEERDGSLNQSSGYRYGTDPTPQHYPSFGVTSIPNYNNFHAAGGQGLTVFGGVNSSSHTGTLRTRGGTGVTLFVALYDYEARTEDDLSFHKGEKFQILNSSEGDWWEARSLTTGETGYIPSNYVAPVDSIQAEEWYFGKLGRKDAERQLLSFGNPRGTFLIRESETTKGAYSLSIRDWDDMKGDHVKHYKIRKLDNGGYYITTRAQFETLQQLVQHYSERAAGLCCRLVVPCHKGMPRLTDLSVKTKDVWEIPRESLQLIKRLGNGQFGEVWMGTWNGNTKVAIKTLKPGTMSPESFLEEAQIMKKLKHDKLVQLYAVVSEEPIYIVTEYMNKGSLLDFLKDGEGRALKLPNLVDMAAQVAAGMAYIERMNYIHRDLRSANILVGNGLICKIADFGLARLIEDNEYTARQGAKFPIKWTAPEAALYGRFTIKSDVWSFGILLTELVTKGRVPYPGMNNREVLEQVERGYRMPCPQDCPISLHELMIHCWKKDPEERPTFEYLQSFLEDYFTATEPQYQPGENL
FYN (isoform without exon 7), N1-fused (P06241, form named): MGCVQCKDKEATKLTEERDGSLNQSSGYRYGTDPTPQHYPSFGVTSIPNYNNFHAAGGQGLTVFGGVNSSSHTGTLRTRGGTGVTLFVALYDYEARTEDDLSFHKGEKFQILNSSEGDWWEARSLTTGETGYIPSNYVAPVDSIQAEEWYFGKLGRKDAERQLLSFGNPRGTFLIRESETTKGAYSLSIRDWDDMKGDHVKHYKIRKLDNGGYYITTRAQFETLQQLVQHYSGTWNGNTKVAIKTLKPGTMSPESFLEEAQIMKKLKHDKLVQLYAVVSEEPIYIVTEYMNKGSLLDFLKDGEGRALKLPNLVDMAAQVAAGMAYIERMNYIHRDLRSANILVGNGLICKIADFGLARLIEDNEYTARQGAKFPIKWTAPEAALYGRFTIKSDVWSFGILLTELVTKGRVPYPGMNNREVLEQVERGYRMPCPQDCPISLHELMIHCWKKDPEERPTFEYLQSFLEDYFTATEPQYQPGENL
FYNT isoform of FYN, N1-fused (P06241, form named): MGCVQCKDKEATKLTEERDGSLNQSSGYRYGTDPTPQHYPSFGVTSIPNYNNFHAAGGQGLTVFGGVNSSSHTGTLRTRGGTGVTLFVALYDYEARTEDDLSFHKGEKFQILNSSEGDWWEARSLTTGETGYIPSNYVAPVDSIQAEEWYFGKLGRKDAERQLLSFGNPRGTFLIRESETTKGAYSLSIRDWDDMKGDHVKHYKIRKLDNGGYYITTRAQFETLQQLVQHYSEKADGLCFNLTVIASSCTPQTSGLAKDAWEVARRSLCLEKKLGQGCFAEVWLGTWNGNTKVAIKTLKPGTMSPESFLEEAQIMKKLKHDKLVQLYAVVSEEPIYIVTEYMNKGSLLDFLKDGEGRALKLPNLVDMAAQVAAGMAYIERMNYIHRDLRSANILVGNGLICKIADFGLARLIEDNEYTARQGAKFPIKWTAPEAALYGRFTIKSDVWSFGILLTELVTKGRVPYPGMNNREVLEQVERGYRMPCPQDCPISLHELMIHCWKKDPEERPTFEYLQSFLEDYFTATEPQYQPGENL
UniProt P08631, residues 22-526: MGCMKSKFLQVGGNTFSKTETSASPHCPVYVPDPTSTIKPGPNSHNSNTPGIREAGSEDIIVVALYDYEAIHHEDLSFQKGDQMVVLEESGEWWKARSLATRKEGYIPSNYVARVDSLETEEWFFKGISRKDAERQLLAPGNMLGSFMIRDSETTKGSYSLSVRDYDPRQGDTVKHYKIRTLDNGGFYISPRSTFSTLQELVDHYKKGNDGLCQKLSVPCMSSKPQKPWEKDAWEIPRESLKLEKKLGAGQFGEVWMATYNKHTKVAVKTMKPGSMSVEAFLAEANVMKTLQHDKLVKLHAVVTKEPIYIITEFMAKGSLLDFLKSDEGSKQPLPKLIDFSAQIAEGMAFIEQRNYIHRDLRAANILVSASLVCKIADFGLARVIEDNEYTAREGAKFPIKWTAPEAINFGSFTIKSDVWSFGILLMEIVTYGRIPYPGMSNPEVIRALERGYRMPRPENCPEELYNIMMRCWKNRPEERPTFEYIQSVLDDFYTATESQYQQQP
UniProt P06239: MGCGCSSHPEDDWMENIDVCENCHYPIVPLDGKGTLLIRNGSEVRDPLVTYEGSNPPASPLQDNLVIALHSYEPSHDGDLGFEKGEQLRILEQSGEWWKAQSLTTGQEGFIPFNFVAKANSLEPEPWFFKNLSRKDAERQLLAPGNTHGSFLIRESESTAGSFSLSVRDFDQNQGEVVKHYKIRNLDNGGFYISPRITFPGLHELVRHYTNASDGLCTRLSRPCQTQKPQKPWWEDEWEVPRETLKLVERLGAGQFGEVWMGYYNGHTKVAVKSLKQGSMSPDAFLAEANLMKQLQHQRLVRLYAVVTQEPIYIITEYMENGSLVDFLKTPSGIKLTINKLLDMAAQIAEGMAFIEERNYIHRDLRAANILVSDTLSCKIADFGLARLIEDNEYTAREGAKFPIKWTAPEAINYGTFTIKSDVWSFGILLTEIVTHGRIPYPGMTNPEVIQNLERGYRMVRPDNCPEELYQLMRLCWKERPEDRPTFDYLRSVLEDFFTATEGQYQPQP
UniProt P07948: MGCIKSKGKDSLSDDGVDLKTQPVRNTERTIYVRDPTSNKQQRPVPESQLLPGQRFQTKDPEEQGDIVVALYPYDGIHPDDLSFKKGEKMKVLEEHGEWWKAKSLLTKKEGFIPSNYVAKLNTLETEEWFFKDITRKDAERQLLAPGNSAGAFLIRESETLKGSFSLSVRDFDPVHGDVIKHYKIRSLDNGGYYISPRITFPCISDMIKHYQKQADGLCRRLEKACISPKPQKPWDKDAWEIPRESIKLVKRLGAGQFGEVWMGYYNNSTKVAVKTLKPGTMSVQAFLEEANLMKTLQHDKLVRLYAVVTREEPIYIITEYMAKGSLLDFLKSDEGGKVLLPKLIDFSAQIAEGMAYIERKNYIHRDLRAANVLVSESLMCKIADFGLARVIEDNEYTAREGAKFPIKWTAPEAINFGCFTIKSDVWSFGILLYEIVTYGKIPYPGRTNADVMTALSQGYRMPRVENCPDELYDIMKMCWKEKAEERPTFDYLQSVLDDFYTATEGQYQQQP
UniProt Q9H3Y6: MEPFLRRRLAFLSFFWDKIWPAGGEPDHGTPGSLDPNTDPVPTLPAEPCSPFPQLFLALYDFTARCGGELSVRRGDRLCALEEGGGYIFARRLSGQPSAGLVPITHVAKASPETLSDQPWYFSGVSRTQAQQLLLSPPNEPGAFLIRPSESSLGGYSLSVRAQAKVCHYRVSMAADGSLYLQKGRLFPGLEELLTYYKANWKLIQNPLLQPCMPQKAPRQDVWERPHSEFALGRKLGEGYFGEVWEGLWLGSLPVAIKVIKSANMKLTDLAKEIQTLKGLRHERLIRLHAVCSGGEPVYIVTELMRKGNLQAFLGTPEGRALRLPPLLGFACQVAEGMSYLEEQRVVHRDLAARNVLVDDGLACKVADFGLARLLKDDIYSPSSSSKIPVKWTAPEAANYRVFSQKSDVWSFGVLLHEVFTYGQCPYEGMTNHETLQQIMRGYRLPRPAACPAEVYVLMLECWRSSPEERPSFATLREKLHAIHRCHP
UniProt P07947: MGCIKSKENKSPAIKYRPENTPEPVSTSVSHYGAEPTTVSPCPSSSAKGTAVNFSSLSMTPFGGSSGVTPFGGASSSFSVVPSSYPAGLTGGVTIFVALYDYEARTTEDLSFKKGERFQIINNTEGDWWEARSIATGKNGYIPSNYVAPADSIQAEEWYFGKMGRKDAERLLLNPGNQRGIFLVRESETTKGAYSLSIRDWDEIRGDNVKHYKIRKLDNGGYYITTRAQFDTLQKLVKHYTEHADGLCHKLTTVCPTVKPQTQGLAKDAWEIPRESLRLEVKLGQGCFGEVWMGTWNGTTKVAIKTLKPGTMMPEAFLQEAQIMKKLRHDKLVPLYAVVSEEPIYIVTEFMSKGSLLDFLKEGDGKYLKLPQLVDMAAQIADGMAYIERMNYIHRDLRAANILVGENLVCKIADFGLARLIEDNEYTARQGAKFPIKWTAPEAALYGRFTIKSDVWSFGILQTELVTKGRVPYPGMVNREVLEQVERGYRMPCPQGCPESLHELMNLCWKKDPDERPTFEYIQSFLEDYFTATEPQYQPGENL
UniProt Q86WV1: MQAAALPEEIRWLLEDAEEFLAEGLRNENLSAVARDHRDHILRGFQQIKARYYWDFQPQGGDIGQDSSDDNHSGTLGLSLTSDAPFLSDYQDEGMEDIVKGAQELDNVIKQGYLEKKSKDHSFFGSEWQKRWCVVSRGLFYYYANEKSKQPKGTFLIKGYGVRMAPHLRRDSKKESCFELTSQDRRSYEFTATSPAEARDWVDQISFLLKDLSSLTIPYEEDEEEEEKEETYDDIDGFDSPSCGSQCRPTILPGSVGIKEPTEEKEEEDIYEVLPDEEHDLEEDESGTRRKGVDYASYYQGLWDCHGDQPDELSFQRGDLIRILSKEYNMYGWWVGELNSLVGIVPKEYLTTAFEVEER
UniProt O75563: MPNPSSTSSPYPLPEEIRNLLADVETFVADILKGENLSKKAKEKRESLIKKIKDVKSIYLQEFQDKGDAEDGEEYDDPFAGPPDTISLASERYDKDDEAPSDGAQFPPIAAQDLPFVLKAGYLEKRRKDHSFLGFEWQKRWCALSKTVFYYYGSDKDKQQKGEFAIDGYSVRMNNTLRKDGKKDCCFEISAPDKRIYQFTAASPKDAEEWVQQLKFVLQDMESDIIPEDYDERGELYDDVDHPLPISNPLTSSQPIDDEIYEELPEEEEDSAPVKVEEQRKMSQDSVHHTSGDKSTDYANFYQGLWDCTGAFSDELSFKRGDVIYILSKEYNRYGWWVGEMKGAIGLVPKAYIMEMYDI

Measured: binding

SRC kinase associated phosphoprotein 1 (SKAP1), wild type, N2-fused (from UniProt Q86WV1 1-359)
binds: all assays above

SRC kinase associated phosphoprotein 2 (SKAP2), wild type, N2-fused (from UniProt O75563 1-359)
binds: all assays above

— article PMC10939263
